This note sets out measurements from US7208176B2, “Drug delivery device containing neuraminidase inhibitor and an H1 antagonist” (Osmotica Corp., priority 2001, dated 2007).

The Cmax is the maximum level reached in the sampled fluid or tissue. As a reminder, the Tmax is the time from dosing to the highest level.

This data set is described as follows: in vivo.

On to `CC(C)(C(=O)O)c1ccc(C(O)CCCN2CCC(C(O)(c3ccccc3)c3ccccc3)CC2)cc1` (centres unmarked) [Fexofenadine], for which the Cmax (120 mg) is 230 to 534 ng/mL. For the same compound, the Tmax (po) lay within 1.12 to 4 h.
